Record: PubChem BioAssay AID1159578 (Peter MacCallum Cancer Centre, 2015)
The whole screen tested about 18,000 reagents; this is a part drawn at random. About 1,030 of all reagents (5.7%) were called active. 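Inactive calls also include pools with fewer than 3300 nuclei, whose migration was not assessed.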 Raw values vary from plate to plate and are shown uncorrected. A number with no mark means an inactive call. Not all columns of the deposit are shown.

Test: 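Genome-wide hunt for genes controlling movement of lymphatic endothelial cells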 (primary screen)
Cell system: human lymphatic endothelial cells
Reagents: siRNA pool against human genes, 40 nM
Duration: 48 h after transfection
Detection: 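Cells stained with dye and imaged after a scratch; covered wound area and nuclei counted, duplicates averaged, migration set against mock wells and turned into a robust z-score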
Scale: migration robust z-score: higher = faster migration into the scratch; nuclei per well: higher = more cells in the well
Rule for the call: 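Pools averaging fewer than 3300 nuclei are never called; remaining pools count as changed when migration robust z lies outside -2 to 2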
Calls: active = migration changed; inactive = no migration change, or too few cells

| target | migration robust z-score | nuclei per well, duplicate mean |
| --- | --- | --- |
| LILRB1 (leukocyte immunoglobulin like receptor B1) | -0.05 | 4083 |
| PRDM15 (PR/SET domain 15) | 0.71 | 5113 |
| PRSS53 (serine protease 53) | 0.4 | 4334 |
| DDX39B (DExD-box helicase 39B) | 0.86 | 5262 |
| RHEBL1 (RHEB like 1) | 0.22 | 4676 |
| UMPS (uridine monophosphate synthetase) | 1.35 | 5162 |
| PIGO (phosphatidylinositol glycan anchor biosynthesis class O) | -0.08 | 6166 |
| TEX47 (testis expressed 47) | 0.52 | 5492 |
| COQ3 (coenzyme Q3, methyltransferase) | 1.53 | 5380 |
| GALNTL6 (polypeptide N-acetylgalactosaminyltransferase like 6) | 0.65 | 6626 |
| YARS2 (tyrosyl-tRNA synthetase 2) | 0.23 | 6005 |
| SPINT4 (serine peptidase inhibitor, Kunitz type 4) | 0.16 | 5530 |
| CLUH (CLUH binding protein of NUMT mRNA) | 0.62 | 5781 |
| ANKS3 (ankyrin repeat and sterile alpha motif domain containing 3) | 0.04 | 5578 |
| FGFR4 (fibroblast growth factor receptor 4) | -2.28 | 3145 |
| OR9Q2 (olfactory receptor family 9 subfamily Q member 2) | 0.81 | 4818 |
| SCN3B (sodium voltage-gated channel beta subunit 3) | 1.92 | 5118 |
| E2F7 (E2F transcription factor 7) | -0.09 | 5106 |
| SPAG8 (sperm associated antigen 8) | 0.3 | 5532 |
| MDK (midkine) | 0 | 4769 |

Part of the list above, reformatted:
{"target": "PIGO (phosphatidylinositol glycan anchor biosynthesis class O)", "migration robust z-score": -0.08, "nuclei per well, duplicate mean": 6166}
{"target": "TEX47 (testis expressed 47)", "migration robust z-score": 0.52, "nuclei per well, duplicate mean": 5492}

Continued.
| target | migration robust z-score | nuclei per well, duplicate mean |
| --- | --- | --- |
| BAGE4 (BAGE family member 4) | 0.42 | 5800 |
| APBB1IP | -0.23 | 5800 |
| TACO1 (translational activator of cytochrome c oxidase I) | -0.64 | 5890 |
| SMAGP (small cell adhesion glycoprotein) | 0.45 | 5137 |
| ULK2 (unc-51 like autophagy activating kinase 2) | 0.11 | 5176 |
| ZNF396 (zinc finger protein 396) | 0.45 | 6358 |
| FCGR3A (Fc gamma receptor IIIa) | -0.57 | 3570 |
| CREB3L3 (cAMP responsive element binding protein 3 like 3) | -0.23 | 4566 |
| UBOX5 (U-box domain containing 5) | 0.36 | 6880 |
| YBX1 (Y-box binding protein 1) | 0.16 | 4999 |
| CNGA1 (cyclic nucleotide gated channel subunit alpha 1) | -0.88 | 6128 |
| FOXD2 (forkhead box D2) | -0.26 | 4420 |
| RARB (retinoic acid receptor beta) | -1.87 | 4596 |
| ABCB7 (ATP binding cassette subfamily B member 7) | -0.83 | 6481 |
| TMEM132D (transmembrane protein 132D) | -0.45 | 5729 |
| XXYLT1 (xyloside xylosyltransferase 1) | -0.52 | 5527 |
| MFAP2 (microfibril associated protein 2) | -0.17 | 8348 |
| TMEM123 (transmembrane protein 123) | -1.27 | 5162 |
| FOXD4L4 (forkhead box D4 like 4) | -1.58 | 3180 |
